## Microarray screen: hit calls

Source: the ROBIN nucleic acid binder screens (doi:10.1002/anie.202211358).

Oligonucleotides screened, 5′ to 3′:
PreQ1: PreQ1 riboswitch RNA pseudoknot, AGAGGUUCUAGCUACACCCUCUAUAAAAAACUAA. From B. subtilis. About 24,000 compounds screened, about 170 hits.
TPP: TPP riboswitch RNA three-way junction, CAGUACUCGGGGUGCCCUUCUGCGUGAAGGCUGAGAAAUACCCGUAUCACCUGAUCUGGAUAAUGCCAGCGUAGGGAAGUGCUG. About 24,000 compounds screened, about 160 hits.
SAM-II: SAM-II riboswitch RNA pseudoknot, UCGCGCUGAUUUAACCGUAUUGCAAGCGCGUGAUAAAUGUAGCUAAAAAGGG. About 21,000 compounds screened, about 200 hits.

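Compounds were printed on reactive glass slides in duplicate spots, a dye-labelled oligonucleotide was laid over them, and the fluorescence left after washing was read. The data file lists only calls. An earlier report of the laboratory on the PreQ1, TPP and SAM-II riboswitches (doi:10.1038/s41467-019-09493-3) used 1 µM RNA for 2 h and required a mean Z-score above 3 (spot signal-to-noise against the whole library), a score well above that on a control array, and duplicate spots agreeing (coefficient of variation under 100); it then also set aside compounds that hit other targets, which this list keeps. The cut-offs behind this list may differ. A missing hit is not proof of no binding, and a hit is not a measured affinity.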
“active” means called a hit, “inactive” means screened and not called a hit.
This is an unselected part of the compounds tested.
A target missing from an entry has no call listed here.

With COCc1cc(NCC(O)c2cccc(C(F)(F)F)c2)ncn1 (stereo not shown) the screen gave PreQ1: inactive; TPP: inactive; SAM-II: inactive. For CNc1nc(SC)n(C)c(=O)c1N=O the calls were PreQ1: inactive; TPP: inactive; SAM-II: inactive. Calls for COCCN1CCC2(CCN(CC(=O)O)CC2)C(CO)C1 (stereo not shown) are PreQ1: inactive; TPP: inactive; SAM-II: inactive. With COC(=O)Nc1ccc(-c2nc(N3CCOCC3)c3cnn(C4CCN(Cc5cccnc5)CC4)c3n2)cc1 the screen gave PreQ1: inactive; TPP: inactive; SAM-II: inactive. For CC(C)Oc1cc(N(C)Cc2nncn2C(C)C)nc(N)n1 the calls were PreQ1: inactive; TPP: inactive; SAM-II: inactive.

For CN1CC[C@H]2CN(C(=O)Cn3nnnc3N)C[C@H]21 the calls were PreQ1: inactive; TPP: inactive; SAM-II: inactive. Fc1ccc(CNc2ccc(N3CCCC3)cc2)cc1 was scored PreQ1: inactive; TPP: inactive; SAM-II: inactive. For CCOC(=O)Cc1c(C)nc2nc(N)nn2c1O the calls were PreQ1: inactive; TPP: inactive; SAM-II: inactive. Calls for CCOC(=O)[C@@H](N)Cc1ccc(-c2cc(O[C@H](c3ccc(Cl)cc3-n3ccc(C)n3)C(F)(F)F)nc(N)n2)cc1.O=C(O)CNC(=O)c1ccccc1 are PreQ1: inactive; TPP: inactive; SAM-II: inactive. For N#Cc1cnn2c(NC3CCCCC3)c(-c3ccc(F)cc3)[nH]c12 the calls were PreQ1: inactive; TPP: inactive.

For NC1(C(=O)NCC2CCCN(Cc3ccccc3F)C2)CCCC1 (stereo not shown) the calls were PreQ1: inactive; TPP: inactive; SAM-II: inactive. Calls for O=C(CCc1cccc(F)c1)NC(CO)C(O)c1ccccc1 (stereo not shown) are PreQ1: inactive; TPP: inactive; SAM-II: inactive. CCc1ccc(CNCc2c(C(=O)O)n(C)c3ccccc23)cc1 was scored PreQ1: inactive; TPP: inactive. Nc1cc(=O)[nH]c(SCC(=O)Nc2ccc(Br)cn2)n1 was scored PreQ1: inactive; TPP: inactive; SAM-II: inactive. Cc1cc2[nH]cc(C(=O)N3C[C@H](c4ccc(C)o4)[C@@H](N)C3)c(=O)n2n1 was scored PreQ1: inactive; TPP: inactive; SAM-II: inactive.

Calls for CC1(C)OC2=C(C(=O)c3ccccc3C2=O)[C@H](NCc2ccccc2)[C@H]1O are PreQ1: inactive; TPP: inactive; SAM-II: inactive. For Nc1cc(-c2nc3ccccc3o2)ccc1Br the calls were PreQ1: inactive; TPP: inactive; SAM-II: inactive. With O=C(c1ccc(Cn2ccnc2)o1)N1CCC2(CCNCC2)CC1 the screen gave PreQ1: inactive; TPP: inactive; SAM-II: inactive. For COCCCN1CC(=O)C(c2nc3ccccc3s2)=C1N the calls were PreQ1: inactive; TPP: inactive.

The last 2 entries again:

{"smiles": "O=C(c1ccc(Cn2ccnc2)o1)N1CCC2(CCNCC2)CC1", "PreQ1": "inactive", "TPP": "inactive", "SAM-II": "inactive"}
{"smiles": "COCCCN1CC(=O)C(c2nc3ccccc3s2)=C1N", "PreQ1": "inactive", "TPP": "inactive"}